Source: article PMC8905318
No constants are given. Whether binding was seen depends on the method and setting. Binding calls can cover weak binding; strength is not graded here.

Sequences of proteins named here, by UniProt entry; tags and fusion partners are left off. A change or cut given only in a name is not applied to a line headed by its entry.
UniProt M5WCL3: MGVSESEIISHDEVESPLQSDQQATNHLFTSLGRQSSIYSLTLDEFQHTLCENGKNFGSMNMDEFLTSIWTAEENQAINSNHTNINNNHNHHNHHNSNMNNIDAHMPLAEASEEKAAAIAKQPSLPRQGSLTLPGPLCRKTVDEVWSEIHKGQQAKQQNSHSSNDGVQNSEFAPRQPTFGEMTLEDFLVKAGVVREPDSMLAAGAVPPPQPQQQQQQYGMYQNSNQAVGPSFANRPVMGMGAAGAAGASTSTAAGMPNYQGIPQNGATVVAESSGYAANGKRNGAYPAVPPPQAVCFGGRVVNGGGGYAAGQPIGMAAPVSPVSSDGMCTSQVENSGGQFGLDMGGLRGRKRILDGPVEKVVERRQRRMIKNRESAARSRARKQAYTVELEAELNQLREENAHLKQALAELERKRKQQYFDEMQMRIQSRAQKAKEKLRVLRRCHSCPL
UniProt M5WPA1: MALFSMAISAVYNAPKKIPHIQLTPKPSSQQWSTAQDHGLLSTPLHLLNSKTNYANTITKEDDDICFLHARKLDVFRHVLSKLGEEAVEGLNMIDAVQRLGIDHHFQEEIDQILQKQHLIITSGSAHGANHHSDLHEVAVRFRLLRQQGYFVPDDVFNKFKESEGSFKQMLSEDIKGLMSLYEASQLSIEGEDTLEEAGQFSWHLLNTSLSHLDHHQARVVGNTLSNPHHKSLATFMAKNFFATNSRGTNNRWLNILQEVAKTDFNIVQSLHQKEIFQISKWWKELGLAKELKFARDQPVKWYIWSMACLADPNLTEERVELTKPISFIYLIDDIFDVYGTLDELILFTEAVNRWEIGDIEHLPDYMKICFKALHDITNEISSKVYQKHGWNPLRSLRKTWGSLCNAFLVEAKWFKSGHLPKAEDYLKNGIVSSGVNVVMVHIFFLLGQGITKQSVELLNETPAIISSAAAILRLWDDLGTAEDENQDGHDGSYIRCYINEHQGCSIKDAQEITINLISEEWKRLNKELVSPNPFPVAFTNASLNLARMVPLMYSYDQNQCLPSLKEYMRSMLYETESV

Target: PpABI5-GST protein (Prunus persica (peach)) (UniProt M5WCL3)
Assay: pull-down; purified PpTPS1-His mixed with PpABI5-GST or GST, purified by a GST purification column, Western blot with His/GST tag antibodies; both purified

binding: binds
Substance: PpTPS1-His fusion protein (from UniProt M5WPA1) (enzyme)
